Reference: PubChem BioAssay AID651664 (NMMLSC, 2012)
Hit rate of the full screen: of about 1,800 compounds, fewer than 10 were called active.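 How the source made its calls: active means inhibition of granule release above a set limit; inactive means the rest.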 The list shows a part of the results.

Assay: LAMP-1 surface externalization blockers in TALL-104 cells – cell-based, flow cytometry, validation set (AID 651664)
Conditions: TALL-104 LAMP-1 externalization, at 15.2 µM, stronger effect = higher value, stimulated with thapsigargin and PMA

inhibition, inactive:
O=C(Nc1nccs1)c1cccc(N2C(=O)c3cccc4c([N+](=O)[O-])ccc(c34)C2=O)c1 2.3%
Cc1ccc(C(=O)NCCCN2CCOCC2)cc1 10.5%
COc1cc(OC)cc(C(=O)Nc2ccccc2C(=O)N2CCCC2)c1 -1.5%
CCOc1cc(C=C(C(=O)OC)C(=O)OC)ccc1OCc1ccc([N+](=O)[O-])cc1 -2.1%
Cc1cc(C)n(-c2nc3c(c(=O)[nH]c(=O)n3C)n2Cc2ccccc2)n1 1.5%
O=C(NCc1ccccc1)C(c1ccccc1)N(Cc1ccc2c(c1)OCO2)C(=O)Cc1cccs1 (configuration not stated) -1.8%
O=C1/C(=C\c2cccnc2)CCc2ccccc21 -1.8%
Cc1ccc(NC(=O)c2ccccc2O)cc1 -1.6%
Cc1ccc(C(=O)N(c2ccccn2)C(C)c2ccco2)cc1 (configuration not stated) 2.1%
COC(=O)c1cc(S(=O)(=O)n2nc(C)c(Br)c2C)c(Cl)cc1Cl -1.9%
CC1=NNC(=O)C1C(c1ccc(F)cc1)C(C#N)C#N (configuration not stated) 0.3%
CCOC(=O)c1sc2nc(CC(=O)OC)nc(NCCN3CCOCC3)c2c1C -2.4%
Cc1cccc(NC(=O)CSc2nccn2C)c1 4.2%
O=C(c1cccc(C(=O)N2CCN(c3ccccc3F)CC2)c1)N1CCN(c2ccccc2F)CC1 4.8%
CC12Cc3ccc4ccccc4c3C=C1C[N+](C)(C)C2 (configuration not stated) -0.3%
O=C(COC(=O)c1ccccc1NC(=O)c1ccco1)Nc1ccc2c(c1)OCO2 -1.8%
CCOC(=O)c1cnn(-c2nc(CC)nc3sc4c(c23)CCC4)c1N 2.2%
CCOC(=O)c1oc2ccccc2c1CN1CCN(C)CC1 -1.7%
Cc1nc2cc(NCc3nc4ccccc4n3Cc3ccccc3)ccc2n1C -0.2%
Cc1ccc(S(=O)(=O)c2c(COC(=O)c3ccccc3Cl)c(-c3ccccc3)nn2C)cc1 0.4%
N#CC(c1ccc(Cl)nn1)c1ccccc1Cl (configuration not stated) 3.2%
Cc1[nH]c2ccccc2c1C(=O)CSc1nc2ccccc2c(=O)n1CCCN1CCOCC1 0.5%
C=CCOc1ccc(Br)cc1/C=N/O 9%
CCN(CC)C(=O)COc1ccc(-c2ccccc2)cc1 -1.6%
CC(C)c1ccc(NS(=O)(=O)c2ccc3[nH]cc(C(=O)N4CCC(C(N)=O)CC4)c(=O)c3c2)cc1 -0.7%
O=C(O)C1CC=CCC1C(=O)N1CCCC1 (configuration not stated) 0.3%
Cc1noc(NS(=O)(=O)c2ccc(NC(=O)Nc3ccc(Cl)c(Cl)c3)cc2)c1C 0%
Cc1ccc2c(CSc3nc4nc(C)cc(C)n4n3)cc(=O)oc2c1 1%
CCCC(=O)n1nc(-c2ccc(Cl)cc2)nc1SC 0.7%
O=C(NCCCN1CCOCC1)C1CC(=O)N(C2CCCCC2)C1 (configuration not stated) 0.2%
CNc1ncc(C(=O)C(C)(C)C)s1 -1%
CN=C(NC)SC1CC(=O)N(c2ccccc2)C1=O (configuration not stated) 3.9%
CC(C)(C)N(NC(=O)Nc1ccccc1)C(=O)c1ccccc1Cl 1.5%
COc1ccc(NS(=O)(=O)c2ccc(Oc3ncccn3)cc2)cc1 -2.9%
CN(C)c1ccc(-c2nnc(-c3ccc(S(=O)(=O)C(F)F)cc3)o2)cc1 -2%
CC(=O)N(CCO)Cc1cc2cc(C)cc(C)c2[nH]c1=O -1.6%
O=C(CC1(O)C(=O)N(CCc2ccccc2)c2ccccc21)c1ccco1 (configuration not stated) 5.6%
Cc1nccn1CC(O)Cn1c2ccccc2c2ccccc21 (configuration not stated) -3.3%
N=c1sccn1CC(=O)Nc1cccc2ccccc12 -0.5%
CCC(C(=O)NCCN1CCN(C)CC1)n1c(C)c2cnn(-c3ccccc3)c(=O)c2c1C (configuration not stated) -0.3%
Cc1cc(C)cc(Nc2ccc(C(=O)O)cc2N)c1 -1.6%
CC(C)OC(=O)c1cc(NC(=S)Nc2ccc([N+](=O)[O-])cc2)cc(C(=O)OC(C)C)c1 -2.3%
O=C(NCCc1ccccc1)c1c(O)c2cccc3c2n(c1=O)CC3 -2.7%
Cc1nc(CN2CCN(C(=O)c3ccc(Br)cc3)CC2)cs1 -0.5%
Cn1c(-c2ccc(C=O)s2)nc2ccccc21 -3.3%
Cc1ccc(OCCn2c(NC(=O)c3ccco3)nc3ccccc32)cc1 4.8%
CCCc1ccc(-c2csc(NC(=O)Cc3cccs3)n2)cc1 -2.6%
O=S1(=O)C=C(SCCN2CCCCC2)c2ccccc21 -1.9%
O=C(COc1cccc(Cl)c1)Nc1ccc(N2CCOCC2)cc1 -0.7%
N#Cc1nc(COc2ccc(-c3ccccc3)cc2)oc1NCCCN1CCOCC1 -0.6%
CC(C)(C)n1nc(-c2ccc(Cl)cc2)c2c(N)ncnc21 0.5%
CCOc1cc(/C=N/n2cnnc2)cc(Br)c1O -0.7%
CCOC(=O)c1cc(NC(=O)N2CCCc3ccccc32)c(C)nc1C 8%
CC(=O)C1=C(O)C(=O)N(c2ccc(S(N)(=O)=O)cc2)C1c1ccc([N+](=O)[O-])cc1 (configuration not stated) 3.6%
Cc1cc(NC(=O)c2c(F)cccc2Cl)n(-c2nc3ccccc3[nH]2)n1 -2.1%
Cc1ccc(Cl)c2c1NC(=O)C2(O)CC(=O)c1ccc(F)cc1 (configuration not stated) -2.8%
CCN(C(=O)COC(=O)c1cnc(C)cn1)C1CCCCC1 1.4%
COc1cc(N)cc(NC(=O)c2ccncc2)c1 -0.4%
O=C(O)c1ccc(-n2c(-c3cc(-c4ccco4)[nH]n3)n[nH]c2=S)cc1 1.2%
CC1CN(c2oc(Cc3cccc4ccccc34)nc2C#N)CC(C)O1 (configuration not stated) -2.4%
Cc1ccc(NC(=O)/C(=C\C=C\c2ccccc2)NC(=O)c2ccccc2)cc1 -0.3%
O=[N+]([O-])c1ccc2c(c1)C(N1CCOCC1)/C(=C/COc1ccc(Cl)cc1Cl)O2 (configuration not stated) 0.9%
Cc1ccc2cc(C#N)c(N3CCN(C)CC3)nc2c1 1.2%
O=C(CCCC(=O)N(CC(=O)NC1CCCCC1)Cc1ccc2c(c1)OCO2)Nc1ccccn1 -2.2%
Cc1cccc(C)c1NC(=O)C1(N(Cc2ccco2)C(=O)c2ccccn2)CCCC1 -1.2%
CCCCn1c(-c2ccncc2)nc2c1c(=O)[nH]c(=O)n2CC(C)C -2.8%
Cc1cccc(C)c1OCC(=O)NNC(=O)c1ccoc1C 2.3%
CC(NC(=O)c1ccco1)C(=O)N1CCc2ccccc2C1 (configuration not stated) 1.3%
Nc1nnc(SCc2ccc(Cl)cc2)s1 7.1%
CC(C)(C)NC(=O)C1Cc2ccccc2CN1C(=O)Nc1cccc(Cl)c1 (configuration not stated) 3.6%
O=C(COc1ncnc2ccccc12)c1ccc2c(c1)OCCO2 3.7%
O=C1NC2(NN1c1ccccc1)C1CC3CC(C1)CC2C3 (configuration not stated) -2.4%
Cc1ccc(C(=O)c2nocc2C(=O)c2cccs2)cc1 -1.8%
COc1ccccc1-c1c(C)oc2c(CN3CCN(CCO)CC3)c(O)ccc2c1=O 0.3%
COc1cccc(C(C(=O)NCc2ccco2)N(Cc2ccco2)C(=O)Cn2nnc3ccccc32)c1 (configuration not stated) -3.7%
CN(C)/C=N/C(=S)Nc1ccc(F)cc1 1.1%
Cc1ccc(NC(=O)CSC(N)=O)cc1Cl -2.2%
Cc1ccc(S(=O)(=O)Nc2ccc(S(=O)(=O)N3CCCC3)cc2)cc1 -3.4%
O=C(CC1SC(=Nc2ccccc2)N(CCCCO)C1=O)NCc1ccccc1 (configuration not stated) -4.1%
O=C(N1CCN(Cc2ccccc2)CC1)C12CC3CC(CC(C3)C1)C2 0.3%
Cc1c(C(=O)N2CCCC2)sc(NC(=O)c2ccc(Cl)cc2)c1C#N 2.2%
C=CCN1C(=O)C(O)(CC(=O)c2ccc(N)cc2)c2ccccc21 (configuration not stated) -0.3%
Cc1ccc2c(CC(=O)O)coc2c1 1.8%
CCOc1ccccc1N1CCN(C(=O)C(Sc2ccccc2)c2ccccc2)CC1 (configuration not stated) 0.3%
Cc1ccc(-c2csc(NC(=O)Cc3cccs3)n2)cc1C -2.7%
CCCS(=O)(=O)N1CCCC(C(=O)NCCN(Cc2ccccc2)C(C)C)C1 (configuration not stated) -0.7%
CN1C(=O)C2(C(C#N)=C(N)N(c3ccc(Cl)cc3)C3=C2C(=O)CC(C)(C)C3)c2ccccc21 (configuration not stated) 3%
CCC(C)NC(=O)N[C@@H](Cc1ccccc1)C(=O)O (some centres not stated) -4.3%
Cc1ccc(C(=O)CCNc2cccc(Br)c2)o1 0.9%
CCC(C)NC(=O)Cn1nc([N+](=O)[O-])c(Cl)c1C (configuration not stated) 2.6%
O=c1c2cnn(-c3ccccc3)c2nc(-c2cccs2)n1-c1ccc(Cl)cc1 -2.5%
C=CCn1c(SCc2nc3ccccc3c(=O)[nH]2)nc2ccccc2c1=O 1.4%
O=C(CSc1nnc(-c2ccncc2)n1Cc1ccco1)N1c2ccccc2Sc2ccc(Cl)cc21 1.7%
COc1cc2c(cc1OC)C(=O)CCS2 -3.4%
Cc1snc(S(=O)(=O)/C(C#N)=N/Nc2cccc(C(F)(F)F)c2)c1C#N 5.6%
CC1(C)OC(=O)C(=NNc2ccc(O)cc2)C(=O)O1 -0.3%
Cc1sc2nc(CN3CCOCC3)nc(N3CCOCC3)c2c1C -1.2%

Molecules above containing bromine, in the order listed:
inhibition, inactive:
COC(=O)c1cc(S(=O)(=O)n2nc(C)c(Br)c2C)c(Cl)cc1Cl -1.9%
C=CCOc1ccc(Br)cc1/C=N/O 9%
Cc1nc(CN2CCN(C(=O)c3ccc(Br)cc3)CC2)cs1 -0.5%
CCOc1cc(/C=N/n2cnnc2)cc(Br)c1O -0.7%
Cc1ccc(C(=O)CCNc2cccc(Br)c2)o1 0.9%

As a short view, two of the compounds above:
inhibition, inactive:
CC(C)c1ccc(NS(=O)(=O)c2ccc3[nH]cc(C(=O)N4CCC(C(N)=O)CC4)c(=O)c3c2)cc1 -0.7%
O=C(O)C1CC=CCC1C(=O)N1CCCC1 (configuration not stated) 0.3%
